Assay results published in PMC5702644.

Chains of the proteins cited; added tags and fusions are not shown.
UniProt P67870: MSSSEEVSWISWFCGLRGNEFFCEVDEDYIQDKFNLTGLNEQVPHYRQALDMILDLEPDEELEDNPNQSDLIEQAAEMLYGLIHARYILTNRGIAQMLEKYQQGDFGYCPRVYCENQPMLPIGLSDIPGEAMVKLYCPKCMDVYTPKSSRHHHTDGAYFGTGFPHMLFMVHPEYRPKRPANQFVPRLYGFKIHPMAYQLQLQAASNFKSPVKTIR
UniProt P68400: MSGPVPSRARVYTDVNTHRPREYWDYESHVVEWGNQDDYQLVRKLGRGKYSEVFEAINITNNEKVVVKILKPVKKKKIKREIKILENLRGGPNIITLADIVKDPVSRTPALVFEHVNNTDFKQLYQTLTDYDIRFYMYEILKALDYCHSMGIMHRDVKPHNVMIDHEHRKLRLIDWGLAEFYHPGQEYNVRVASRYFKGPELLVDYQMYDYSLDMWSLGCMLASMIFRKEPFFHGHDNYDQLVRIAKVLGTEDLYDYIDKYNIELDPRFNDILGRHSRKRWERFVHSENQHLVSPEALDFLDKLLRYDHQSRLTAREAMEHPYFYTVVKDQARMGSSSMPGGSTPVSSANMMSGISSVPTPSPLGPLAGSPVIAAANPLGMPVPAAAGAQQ
UniProt Q15418: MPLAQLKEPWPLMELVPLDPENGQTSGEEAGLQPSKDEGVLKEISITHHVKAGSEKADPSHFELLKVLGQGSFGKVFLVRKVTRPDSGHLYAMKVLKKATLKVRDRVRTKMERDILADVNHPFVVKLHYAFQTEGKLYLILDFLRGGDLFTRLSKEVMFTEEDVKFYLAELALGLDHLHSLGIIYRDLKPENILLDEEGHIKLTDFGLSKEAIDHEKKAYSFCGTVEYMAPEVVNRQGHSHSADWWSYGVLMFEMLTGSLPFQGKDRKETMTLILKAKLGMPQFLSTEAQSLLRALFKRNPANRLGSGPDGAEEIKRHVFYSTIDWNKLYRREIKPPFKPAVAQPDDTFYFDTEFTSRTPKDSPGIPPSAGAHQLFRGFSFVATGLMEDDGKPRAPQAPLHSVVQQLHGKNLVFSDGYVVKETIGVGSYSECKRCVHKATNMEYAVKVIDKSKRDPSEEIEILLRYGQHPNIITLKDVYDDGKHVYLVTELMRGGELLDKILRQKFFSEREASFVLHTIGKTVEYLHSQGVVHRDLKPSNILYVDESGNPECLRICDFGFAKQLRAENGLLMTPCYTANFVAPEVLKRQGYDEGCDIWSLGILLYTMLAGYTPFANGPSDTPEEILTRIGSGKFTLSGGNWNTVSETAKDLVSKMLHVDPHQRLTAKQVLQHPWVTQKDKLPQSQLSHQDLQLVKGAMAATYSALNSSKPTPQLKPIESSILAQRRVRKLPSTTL
UniProt Q9UK32: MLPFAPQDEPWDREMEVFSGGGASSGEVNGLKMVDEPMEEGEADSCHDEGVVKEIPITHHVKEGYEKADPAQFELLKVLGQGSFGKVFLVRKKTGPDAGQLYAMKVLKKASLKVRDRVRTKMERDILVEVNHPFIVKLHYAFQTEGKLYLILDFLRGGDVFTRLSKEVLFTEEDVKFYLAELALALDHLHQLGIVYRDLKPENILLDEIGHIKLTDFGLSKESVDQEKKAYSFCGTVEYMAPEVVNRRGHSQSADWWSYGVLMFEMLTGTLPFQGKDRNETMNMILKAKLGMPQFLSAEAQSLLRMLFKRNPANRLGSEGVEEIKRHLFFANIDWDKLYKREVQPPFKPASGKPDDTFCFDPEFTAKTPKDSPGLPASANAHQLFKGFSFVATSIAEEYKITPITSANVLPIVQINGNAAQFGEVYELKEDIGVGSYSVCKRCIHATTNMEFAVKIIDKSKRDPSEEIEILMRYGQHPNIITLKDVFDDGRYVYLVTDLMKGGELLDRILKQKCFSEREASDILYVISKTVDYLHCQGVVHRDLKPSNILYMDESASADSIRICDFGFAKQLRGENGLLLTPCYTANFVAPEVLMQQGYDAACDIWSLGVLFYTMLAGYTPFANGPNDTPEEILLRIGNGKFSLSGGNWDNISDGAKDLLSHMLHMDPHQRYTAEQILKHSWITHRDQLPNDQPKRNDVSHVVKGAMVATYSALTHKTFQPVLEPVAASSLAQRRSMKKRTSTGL
UniProt Q15349: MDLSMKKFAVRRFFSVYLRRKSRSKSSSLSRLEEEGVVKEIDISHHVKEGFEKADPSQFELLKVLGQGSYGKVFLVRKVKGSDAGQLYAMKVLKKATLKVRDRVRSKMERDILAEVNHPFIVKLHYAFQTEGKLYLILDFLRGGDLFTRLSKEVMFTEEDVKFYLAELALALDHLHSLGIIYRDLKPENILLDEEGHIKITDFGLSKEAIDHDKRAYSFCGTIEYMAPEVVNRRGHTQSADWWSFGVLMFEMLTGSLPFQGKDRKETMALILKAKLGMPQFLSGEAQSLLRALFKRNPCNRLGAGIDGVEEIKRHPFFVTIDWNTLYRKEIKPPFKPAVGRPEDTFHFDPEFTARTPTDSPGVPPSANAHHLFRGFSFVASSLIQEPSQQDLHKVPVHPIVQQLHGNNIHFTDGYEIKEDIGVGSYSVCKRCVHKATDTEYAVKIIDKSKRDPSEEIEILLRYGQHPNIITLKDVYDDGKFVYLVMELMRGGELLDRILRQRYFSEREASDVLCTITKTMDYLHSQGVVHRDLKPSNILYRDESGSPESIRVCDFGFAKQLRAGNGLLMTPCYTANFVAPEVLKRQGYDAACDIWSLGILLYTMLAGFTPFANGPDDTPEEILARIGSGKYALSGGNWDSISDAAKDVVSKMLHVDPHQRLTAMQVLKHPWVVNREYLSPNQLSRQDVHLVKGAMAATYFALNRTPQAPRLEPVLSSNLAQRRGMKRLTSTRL

Tests used:
Assay in all cases: affinity purification with mass spectrometry; FLAG-tagged CK2 subunit transiently transfected into HEK-293T cells arrested in mitosis (thymidine, Taxol); anti-FLAG M2 affinity gel, 2 h at 4°C, 50 mM Tris-HCl pH 7.5, 150 mM NaCl, 1% Triton-X100; eluted with 3xFLAG peptide, TCA precipitated, LC-MS/MS; quadruplicate; hits enriched 3-fold or more above control pull-downs
FLAG-tagged CK2β (human) = FLAG-tagged CK2β (human) (UniProt P67870)
FLAG-tagged CK2α (human) = FLAG-tagged CK2α (human) (UniProt P68400)
[1] = molecular target: FLAG-tagged CK2α' (human) (UniProt P19784)

Substance | binding (FLAG-tagged CK2β (human)) | binding (FLAG-tagged CK2α (human)) | binding [1]
RSK α1 (90 kDa ribosomal S6 kinase family) (from UniProt Q15418 1-735) (enzyme) | binds | no binding | no binding
RSK α3 (90 kDa ribosomal S6 kinase family) (from UniProt P51812 1-740) (enzyme) | binds | no binding | no binding
RSK α6 (90 kDa ribosomal S6 kinase family) (from UniProt Q9UK32 1-745) (enzyme) | binds | no binding | no binding
RPS6KA2 (from UniProt Q15349 1-733) (enzyme) | binds | no binding | no binding

No constants are given. Whether binding was seen depends on the method and setting. Binding seen in cells or lysates may run through a third protein. These calls come from enrichment with a bait or labelling near it, and not all partners need be listed. For part of these data: No binding means not detected with the bait.
